Consider ten sequences from doi:10.1101/2022.05.24.493321.

Sequences of proteins named here, by UniProt entry; tags and fusion partners are left off.
UniProt P61244, whole entry: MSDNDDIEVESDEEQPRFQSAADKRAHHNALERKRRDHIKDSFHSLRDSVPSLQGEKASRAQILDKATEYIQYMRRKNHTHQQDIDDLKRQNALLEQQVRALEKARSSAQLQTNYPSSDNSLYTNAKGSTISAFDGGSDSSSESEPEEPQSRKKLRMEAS

Construct, isoform or probe ends are uncertain for at least one entry. For some of these results: A weaker result is weaker than the reference pair of the same experiment. At least one verdict was read from the data and is not stated in words by the source. For some of these results: Tags and fusion partners may be left off the protein sequences shown.

Series [1] concerns the target MAX (Homo sapiens) (UniProt P61244). As to the kind of experiment: MITOMI. The settings on record: protein translated in vitro.
In series [2] the target is T1, Pho4 (S. cerevisiae) (UniProt P07270).
T1 sequence (looked up, limits assumed): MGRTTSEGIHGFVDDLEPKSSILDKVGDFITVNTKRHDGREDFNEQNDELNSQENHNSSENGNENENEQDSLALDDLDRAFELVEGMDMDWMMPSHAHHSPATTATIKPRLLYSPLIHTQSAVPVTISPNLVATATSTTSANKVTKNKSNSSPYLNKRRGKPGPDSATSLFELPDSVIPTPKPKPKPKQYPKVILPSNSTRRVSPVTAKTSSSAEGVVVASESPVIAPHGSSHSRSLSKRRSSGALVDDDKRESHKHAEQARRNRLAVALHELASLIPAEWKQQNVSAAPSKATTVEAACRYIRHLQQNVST
As to the kind of experiment: MITOMI. The settings on record: protein translated in vitro.

Series [3] deals with MAX (Homo sapiens) (UniProt P61244). The series is described as follows: k-MITOMI. The settings on record: dissociation measured; protein translated in vitro.
Series [4] addresses T1, Pho4 (S. cerevisiae). As to the kind of experiment: k-MITOMI. The settings on record: dissociation measured; protein translated in vitro.
[5] abbreviates: STR flanks, Kd and koff measured.

With “CGCCCCAGCACTGCCAAGGGAGAGAGAGAGAGAGAGAGAGAGAGAGAGAGAGAGAGAGAGAGAGTCACGTGACTCTCTCTCTCTCTCTCTCTCTCTCTCTCTCTCTCTCTCTCTCTCTAGTTCGGTTTATGAGCGTCCGGCGGTATGAC (double strand) [AG/CT 45bp]”, in the series with MAX (Homo sapiens) [1] (disfavored repeat, effect saturates after ~40 nt), the binding result is reported as “binds more weakly”. In the case of “CGCATATATATATAGAGTCACGTGACTCTCGCGCGCGCGGTCCGGCGGTATGAC (double strand) [Motif + AT/CG repeat 1]”, the binding result in the series with MAX (Homo sapiens) [1] (setting [5]) and with Pho4 (S. cerevisiae) [2] (setting [5]) was “binds” each time. As for “CGCATATATATATATATATATCGCGCGCGCGCGCGCGCGGTCCGGCGGTATGAC (double strand) [No motif + AT/CG repeat 3]”, the binding result in the series with MAX (Homo sapiens) [1] (no motif, Kd used in model fit) is listed as “binds more weakly”; with Pho4 (S. cerevisiae) [2] (no motif, Kd used in model fit), “binds more weakly”. “CGCATATATATATAGAGTCACGCGACTCTCGCGCGCGCGGTCCGGCGGTATGAC (double strand) [Mutated motif + AT/CG repeat 1]”: the binding result in the series with MAX (Homo sapiens) [1] (weak E-box) and with Pho4 (S. cerevisiae) [2] (weak E-box) was “binds more weakly” each time. For “CGCACTGACTGACTGACTGACTGACTGACTGACTGACTGACTGACTGACTGACTGACTGACTGGTCACGTGACCAGTCAGTCAGTCAGTCAGTCAGTCAGTCAGTCAGTCAGTCAGTCAGTCAGTCAGTCAGTCGTCCGGCGGTATGAC (double strand) [ACTG/AGTC 60bp]”, the binding result with MAX (Homo sapiens) [3] and with Pho4 (S. cerevisiae) [4] was “binds” each time.

“CGCCACACACACACATGTCACGTGACATGTGTGTGTGTGGTCCGGCGGTATGAC (double strand) [Motif + AC/GT repeat 1]”: the binding result in the series with MAX (Homo sapiens) [1] (setting [5]) and in the series with Pho4 (S. cerevisiae) [2] (setting [5]) was “binds” each time. On to “CGCCCCAGCACTGCCAAGCCGACGTTAAAACGGGTTGCTTCATCAATCGAATGTCAATACATAGTCACGTGACACGCGGTAGGCTCGCTATCGGCACTTGCGCTTGAGTGCATCGAATAGTTCGGTTTATGAGCGTCCGGCGGTATGAC (double strand) [Random 1 (Library 2)]”, for which the binding result with MAX (Homo sapiens) [1] (random-flank reference) and with Pho4 (S. cerevisiae) [2] (random-flank reference) was “binds” in each case. “CGCGTACGTACGTACGTACGTACGTACGTACGTACGTACGTACGTACGTACGTACGTACGTACGTCACGTGACGTACGTACGTACGTACGTACGTACGTACGTACGTACGTACGTACGTACGTACGTACGTACCGTCCGGCGGTATGAC (double strand) [ACGT/ACGT 60bp]”: the binding result in the series with MAX (Homo sapiens) [3] and with Pho4 (S. cerevisiae) [4] was “binds” throughout. Turning to “CGCATCGATCGATCGATCGATCGATCGATCGATCGATCGATCGATCGATCGATCGATCGATCGGTCACGTGACCGATCGATCGATCGATCGATCGATCGATCGATCGATCGATCGATCGATCGATCGATCGATCGTCCGGCGGTATGAC (double strand) [ATCG/ATCG 60bp]”, the binding result is recorded as “binds more weakly” in the series with MAX (Homo sapiens) [1] (deleterious vs random flanks) and “binds” in the series with Pho4 (S. cerevisiae) [4]. As to “CGCGAGAGAGAGAGAGAGAGAGAGAGAGAGAGAGAGAGAGAGAGAGAGAGAGAGAGAGAGAGAGTCACGTGACTCTCTCTCTCTCTCTCTCTCTCTCTCTCTCTCTCTCTCTCTCTCTCTCTCTCTCTCTCTCCGTCCGGCGGTATGAC (double strand) [AG/CT 60bp]”, the binding result with MAX (Homo sapiens) [1] (deleterious vs random flanks) was “binds more weakly”; in the series with Pho4 (S. cerevisiae) [4], “binds”.
